Earlier results in patent US20250361227A1, “INHIBITORS OF FLI1 AND ERG” (UNIVERSITY OF VIRGINIA PATENT FOUNDATION, priority 2022, published 2025).

B1: 289-388: ERG truncation construct, residues 289-388 (protein, UniProt P11308 289-388, looked up, fragment)
chain: QLDPYQILGPTSSRLANPGSGQIQLWQFLLELLSDSSNSSCITWEGTNGEFKMTDPDEVARRWGERKSKPNMNYDKLSRALRYYYDKNIMTKVHGKRYAY
B2: 272-388: the auto-inhibited construct of ERG (272-388) (protein, UniProt P11308 272-388, looked up, fragment)
chain: AAQPSPSTVPKTEDQRPQLDPYQILGPTSSRLANPGSGQIQLWQFLLELLSDSSNSSCITWEGTNGEFKMTDPDEVARRWGERKSKPNMNYDKLSRALRYYYDKNIMTKVHGKRYAY
B3: 210-462: ERG truncation construct, residues 210-462 (protein, UniProt P11308 210-462, looked up, fragment)
chain: KALQNSPRLMHARNTGGAAFIFPNTSVYPEATQRITTRPDLPYEPPRRSAWTGHGHPTPQSKAAQPSPSTVPKTEDQRPQLDPYQILGPTSSRLANPGSGQIQLWQFLLELLSDSSNSSCITWEGTNGEFKMTDPDEVARRWGERKSKPNMNYDKLSRALRYYYDKNIMTKVHGKRYAYKFDFHGIAQALQPHPPESSLYKYPSDLPYMGSYHAHPQKMNFVAPHPPALPVTSSSFFAAPNPYWNSPTGGIYP
B4: 289-378: the uninhibited DNA binding domain construct of ERG (289-378) (protein, UniProt P11308 289-378, looked up, fragment)
chain: QLDPYQILGPTSSRLANPGSGQIQLWQFLLELLSDSSNSSCITWEGTNGEFKMTDPDEVARRWGERKSKPNMNYDKLSRALRYYYDKNIM
B5: 289-412: ERG truncation construct, residues 289-412 (protein, UniProt P11308 289-412, looked up, fragment)
chain: QLDPYQILGPTSSRLANPGSGQIQLWQFLLELLSDSSNSSCITWEGTNGEFKMTDPDEVARRWGERKSKPNMNYDKLSRALRYYYDKNIMTKVHGKRYAYKFDFHGIAQALQPHPPESSLYKYP
B6: 1-462: ERG construct, residues 1-462 (protein, UniProt P11308 1-462, looked up, fragment)
chain: MASTIKEALSVVSEDQSLFECAYGTPHLAKTEMTASSSSDYGQTSKMSPRVPQQDWLSQPPARVTIKMECNPSQVNGSRNSPDECSVAKGGKMVGSPDTVGMNYGSYMEEKHMPPPNMTTNERRVIVPADPTLWSTDHVRQWLEWAVKEYGLPDVNILLFQNIDGKELCKMTKDDFQRLTPSYNADILLSHLHYLRETPLPHLTSDDVDKALQNSPRLMHARNTGGAAFIFPNTSVYPEATQRITTRPDLPYEPPRRSAWTGHGHPTPQSKAAQPSPSTVPKTEDQRPQLDPYQILGPTSSRLANPGSGQIQLWQFLLELLSDSSNSSCITWEGTNGEFKMTDPDEVARRWGERKSKPNMNYDKLSRALRYYYDKNIMTKVHGKRYAYKFDFHGIAQALQPHPPESSLYKYPSDLPYMGSYHAHPQKMNFVAPHPPALPVTSSSFFAAPNPYWNSPTGGIYP
B7: 272-378: ERG truncation construct, residues 272-378 (protein, UniProt P11308 272-378, looked up, fragment)
chain: AAQPSPSTVPKTEDQRPQLDPYQILGPTSSRLANPGSGQIQLWQFLLELLSDSSNSSCITWEGTNGEFKMTDPDEVARRWGERKSKPNMNYDKLSRALRYYYDKNIM
B8: 272-412: ERG truncation construct, residues 272-412 (protein, UniProt P11308 272-412, looked up, fragment)
chain: AAQPSPSTVPKTEDQRPQLDPYQILGPTSSRLANPGSGQIQLWQFLLELLSDSSNSSCITWEGTNGEFKMTDPDEVARRWGERKSKPNMNYDKLSRALRYYYDKNIMTKVHGKRYAYKFDFHGIAQALQPHPPESSLYKYP

Tested on: DNA
Conditions: cited from earlier work; for Stoichiometry / ΔG / ΔH / −TΔS: ITC, ERG construct binding to DNA, ±SE in cell beside; for Fold Inhibition: relative inhibition of DNA binding of ERG truncation constructs

Molecule | Stoichiometry | ΔG [kcal/mol] | ΔH [kcal/mol] | −TΔS [kcal/mol] | Fold Inhibition
B1 | 0.99 | -9.795 | 5.024 | -14.819 | 1.1
B2 | 0.98 | -8.967 | 4.924 | -13.891 | 4.8
B3 | 1.1 | -9.269 | 4.303 | -13.572 | 2.8
B4 | 1.04 | -9.852 | 4.851 | -14.703 | 1.0
B5 | 0.98 | -9.67 | 5.062 | -14.732 | 1.4
B6 | 1.05 | -9.164 | 4.205 | -13.369 | 3.3
B7 | 0.99 | -9.914 | 4.731 | -14.645 | 0.9
B8 | 0.94 | -9.281 | 4.9 | -14.181 | 2.7
